Data on one compound can be found in patent publication US12062422B2, “System, method and computer-accessible medium for use of heavy water as a probe for imaging metabolic activities” (The Trustees of Columbia University in the City of New York, priority 2018, dated 2024).

Structures are written as SMILES.

Holding throughout (assay type): in vivo
One data set relates to sebaceous glands. In words: DO-SRS imaging of sebaceous glands of mice drinking D2O.
The next data set has as its system mice. In words: Protein synthesis tracking in mice, D2O versus D-AAs via drinking water. The following applies: 25% D2O or 2 mg/ml of D-AAs via drinking water, 8 days.
A further data set has as its system C. elegans. In words: DO-SRS imaging of lipogenesis in C. elegans. The following applies: for CDL/CHL ratio: 20% D2O plates.
The mark [1] stands for this setting: extrapolated detection limit, SRS at 2135 cm^−1.

With `[2H]O[2H]` [D2O, deuterium oxide], the CDL/CHL ratio result in the data set with sebaceous glands (3-month old mice, 25% D2O, day 26) is “approximately 0.2”. In the data set on sebaceous glands (setting [1]), the “D2O administration needed for S/N higher than 2” value was 0.3% and the “D2O administration sufficient for signal-to-noise ratio (S/N) of 10” value is on record as 1.4%. The “C-D signals in sebaceous glands” value in the data set with sebaceous glands (mice, 4% D2O as drinking water) was “easily detectable C-D signals”. Moreover, the “increase in C-D signal compared to mice drinking 4% D2O” value with sebaceous glands (mice, 25% D2O as drinking water) turned out to be 6 fold. In the data set on mice, the “CDP signal in digestive tract and liver” value was “much stronger signal”; the “CDP signal in hippocampus, cortex, muscle and thymus” value was “strong CD signal”. In addition, the CDL/CHL ratio result with C. elegans (animals fed on D-labeled bacteria) is “approximately 22.3%”. Also, the CDL/CHL ratio entry in the data set with C. elegans (animals fed on non-labeled bacteria) is “approximately 3.1%”. Moreover, the “CDL signal compared to 4 mM deuterated palmitic acid” value in the data set on C. elegans (20% D2O treatment) is reported as “over two-fold stronger CDL signal”.
